Experimental findings from PubChem BioAssay AID328 (DTP/NCI, 2004) are described below.

The assay has as its system BDF1 mice, P388 leukemia ip, median survival T/C. The assay is described as follows: NCI In Vivo Anticancer Drug Screen. Data for tumor model P388 Leukemia (intraperitoneal) in B6D2F1 (BDF1) mice. The settings on record: T/C endpoint: median survival time, higher T/C = longer survival. In short, it runs like this: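 Vehicle-dosed animals serve as the reference; survival of compound-dosed, tumour-implanted mice is divided by it.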

Where [1] appears, read: dose: 200.0 mg/kg/injection, schedule: Q01DX009 (ip), vehicle: saline with Tween-80.
[2] abbreviates: dose: 400.0 mg/kg/injection, schedule: Q01DX009 (ip), vehicle: saline with Tween-80.
[3] abbreviates: dose: 400.0 mg/kg/injection, schedule: Q04DX003 (ip), vehicle: saline.
[4] abbreviates: dose: 50.0 mg/kg/injection, schedule: Q01DX009 (ip), vehicle: saline with Tween-80.
Where [5] appears, read: dose: 100.0 mg/kg/injection, schedule: Q01DX009 (ip), vehicle: saline with Tween-80.

The list is a part of this screen's results and no random one: it is rich in T/C values a quarter to a half above the control, in often repeated tests (any T/C) and in doses without a T/C. Further doses and runs are listed elsewhere. T/C gives the treated animals as a percentage of the vehicle group. Some entries give survivors of the animals treated and no T/C: the source holds a T/C of zero for them, seemingly a mark for toxic or unscored doses. Some survivor counts are full or nearly so, which does not show that the dose was tolerated: the source hardly ever lists a survival T/C far under the control, and the zero likely stands for such cases as well. Counts of survivors are from the toxicity check (mostly the fifth day) where no day follows; animals may have died later. Schedules are NCI's codes, taken here to give the interval after Q, in days (D) or hours (H), and the number of doses after X. For survival time, this PubChem deposit counts one and a half times the control or more as active, and values a quarter to a half above the control carry no call in these data; other NCI protocols may use other cut-offs. Some entries were tested several times; their values stand side by side, smallest first. Some T/C values are followed by the survivors on the day toxicity was checked, most often the fifth; where none is given, no animal had died by that day.

As to `COC1C(O)C(C)OC(OC2C(Oc3cccc4c(O)c5c(=O)oc6ccc(C)c7c(=O)oc(c34)c5c67)OC(C)C(O)C2O)C1O` (stereo not drawn), the T/C reads like this: (dose: 0.78 mg/kg/injection, schedule: Q01DX009 (ip), vehicle: other) 130 % of control; (dose: 1.56 mg/kg/injection, schedule: Q01DX009 (ip), vehicle: Klucel (hydroxypropylcellulose) (HPC)) 148 % of control; (dose: 1.56 mg/kg/injection, schedule: Q01DX009 (ip), vehicle: other) 145 % of control; (dose: 3.12 mg/kg/injection, schedule: Q01DX009 (ip), vehicle: other) 128 % of control; (dose: 6.25 mg/kg/injection, schedule: Q01DX009 (ip), vehicle: other) 139 and 141 % of control. The survivor count reads like this: (dose: 200.0 mg/kg/injection, schedule: Q01DX009 (ip), vehicle: Klucel (hydroxypropylcellulose) (HPC)) 0 of 6; under setting [1], 1 of 3; under setting [2], 0 of 3.

Take `C=C(C)C(=O)OCC1CO1` (stereo not drawn): the survivor count (dose: 400.0 mg/kg/injection, schedule: Q01DX010 (ip), vehicle: saline) is on record as 0 of 6.

As for `CC(C)=NNC(=O)C1CCN1C(c1ccccc1)c1ccccc1` (stereo not drawn), the survivor count (dose: 200.0 mg/kg/injection, schedule: Q01DX001 (ip), vehicle: saline with Tween-80) is listed as 0 of 6.

`C[n+]1c(/C=C/c2ccc(N(CCC(=O)O)CCC(=O)O)cc2)ccc2cc(Cl)ccc21`: the survivor count (dose: 50.0 mg/kg/injection, schedule: Q01DX001 (ip), vehicle: saline with Tween-80) is listed as 4 of 6.

Take `OC1CC2c3ccccc3C1c1cccc[n+]12` (stereo not drawn): the survivor count reads like this: (dose: 25.0 mg/kg/injection, schedule: Q01DX009 (ip), vehicle: Klucel (hydroxypropylcellulose) (HPC)) 6 of 6; (dose: 115.0 mg/kg/injection, schedule: Q01DX009 (ip), vehicle: Klucel (hydroxypropylcellulose) (HPC)) 0 of 6; (dose: 170.0 mg/kg/injection, schedule: Q01DX009 (ip), vehicle: Klucel (hydroxypropylcellulose) (HPC)) 0 of 6; (dose: 225.0 mg/kg/injection, schedule: Q04DX003 (ip), vehicle: Klucel (hydroxypropylcellulose) (HPC)) 1 of 6.

With `CCOC(=O)NC(=O)CC`, the T/C by setting is: (dose: 400.0 mg/kg/injection, schedule: Q01DX005 (ip), vehicle: saline) 133 % of control; under setting [3], 126 % of control.

`Cn1c2nc(=O)n(-c3ccccc3)c(=O)c-2nc2c1CCCC2`: the T/C is, setting by setting: under setting [4], 129 % of control; under setting [5], 133 % of control [5 of 6 alive]; under setting [1], 126 % of control.

Take `NNc1nccnc1Cl`: the survivor count under setting [3] is recorded as 1 of 6.

For the compound `CC1(C)N=C(N)N=C(N)N1c1cccc(CCCCc2cccc(S(=O)(=O)F)c2)c1`, the T/C is 127 % of control (dose: 3.0 mg/kg/injection, schedule: Q04DX003 (ip), vehicle: saline) and 131 % of control [5 of 6 alive] (dose: 6.0 mg/kg/injection, schedule: Q04DX003 (ip), vehicle: saline).

`CCNc1cc(Cl)nc(N)n1`: the survivor count is 6 of 6 under setting [5], 6 of 6 under setting [1] and 5 of 6 under setting [2].

As to `Cc1ccc(S(=O)(=O)NC(=O)OC23COCN2COC3)cc1`, the T/C under setting [5] was 127 % of control and the T/C under setting [1] was 133 % of control.

Consider `C1=CC2CC1C1CSCC21` (stereo not drawn), for which the survivor count is, setting by setting: (dose: 0.55 mg/kg/injection, schedule: Q04DX003 (ip), vehicle: saline) 2 of 6; (dose: 0.78 mg/kg/injection, schedule: Q01DX009 (ip), vehicle: saline) 6 of 6; (dose: 1.1 mg/kg/injection, schedule: Q04DX003 (ip), vehicle: saline) 0 of 6.

For `O=[N+]([O-])c1ccc(SCc2ccccc2)c2nonc12`, the T/C (dose: 25.0 mg/kg/injection, schedule: Q01DX009 (ip), vehicle: saline with Tween-80) was 131 % of control.

Turning to `CC1=NN(c2ccc(S(=O)(=O)O)cc2)C(=O)/C1=C/c1ccc(Cl)cc1`, the survivor count reads like this: (dose: 200.0 mg/kg/injection, schedule: Q01DX009 (ip), vehicle: saline) 3 of 6; (dose: 400.0 mg/kg/injection, schedule: Q01DX009 (ip), vehicle: saline) 5 of 6.

On to `OC1C2CCC(CC2)C1O` (stereo not drawn), for which the survivor count reads like this: (dose: 4.5 mg/kg/injection, schedule: Q04DX003 (ip), vehicle: saline with Tween-80) 6 of 6; (dose: 18.0 mg/kg/injection, schedule: Q01DX009 (ip), vehicle: saline with Tween-80) 6 of 6.

Take `Cc1cccc2nc(-c3ccccc3)ccc12`: the survivor count (dose: 100.0 mg/kg/injection, schedule: Q01DX001 (ip), vehicle: saline) was 0 of 6; the survivor count (dose: 200.0 mg/kg/injection, schedule: Q01DX001 (ip), vehicle: saline) is 0 of 6; the survivor count (dose: 400.0 mg/kg/injection, schedule: Q01DX001 (ip), vehicle: saline) is 0 of 6.

In the case of `O=C(Nc1cccc(C(F)(F)F)c1)Nc1ccc(Oc2ccc(Cl)cc2)cc1S(=O)(=O)O`, for the setting “dose: 200.0 mg/kg/injection, schedule: Q04DX003 (ip), vehicle: saline sonified”, the T/C is 131 % of control.

On to `O=C1c2ccccc2C(=O)c2c(Sc3ccccc3)cccc21`, for which the survivor count is listed as 6 of 6 under setting [5] and 6 of 6 under setting [2].

As to `O=c1[nH]c(SCc2ccc([N+](=O)[O-])cc2)nc2ccccc12`, where the note is “dose: 400.0 mg/kg/injection, schedule: Q04DX003 (ip), vehicle: Klucel (hydroxypropylcellulose) (HPC)”, the survivor count is given as 6 of 6.

In the case of `O=c1[nH]c(=O)n(O)c2nc[nH]c12`, the survivor count reads like this: (dose: 115.0 mg/kg/injection, schedule: Q01DX009 (ip), vehicle: saline) 4 of 6; (dose: 150.0 mg/kg/injection, schedule: Q01DX001 (ip), vehicle: saline) 1 of 6; (dose: 170.0 mg/kg/injection, schedule: Q01DX009 (ip), vehicle: saline) 2 of 6.

With `Cc1cc(N=NC(N)=S)c2ccccc2c1O`, under setting [2], the survivor count was 6 of 6.

As to `COc1ccc2cc1Oc1ccc(cc1)CC1=NCCc3cc(OC)c(OC)c(c31)Oc1cc3c(cc1OC)CCN(C)C3C2` (stereo not drawn), the survivor count (dose: 150.0 mg/kg/injection, schedule: Q01DX010 (ip), vehicle: carboxymethylcellulose (CMC)) is 5 of 6.

`Cc1cc(-c2ccc(Cl)cc2)[n+](C)n1C`: the survivor count under setting [4] was 1 of 6.

Turning to `Cc1ccc(C(=O)O)cc1S(=O)(=O)F`, under setting [2], the T/C is 126 % of control [5 of 6 alive]. In addition, where the note is “dose: 600.0 mg/kg/injection, schedule: Q01DX009 (ip), vehicle: saline with Tween-80”, the survivor count is 3 of 6.

On to `O=C1C=CC(=O)C23CC=CCC12C(=O)c1ccccc1C3=O` (stereo not drawn), for which the survivor count is on record as 3 of 6 (dose: 50.0 mg/kg/injection, schedule: Q04DX003 (ip), vehicle: water) and 1 of 6 (dose: 100.0 mg/kg/injection, schedule: Q04DX003 (ip), vehicle: water).

Regarding `O=C(Nc1ccc(CCNC2=NCCN2)cc1)c1ccc(C(=O)Nc2ccc(CCNC3=NCCN3)cc2)cc1`, the T/C (dose: 4.0 mg/kg/injection, schedule: Q01DX009 (ip), vehicle: saline) was 130 % of control.

Regarding `CC(NC(=O)c1ccc(Cl)cc1Cl)c1ccccc1` (stereo not drawn), the survivor count (dose: 200.0 mg/kg/injection, schedule: Q01DX001 (ip), vehicle: other) is recorded as 6 of 6.

Turning to `c1cc[c]([Sb]([c]2ccccc2)[c]2ccccc2)cc1`, the survivor count reads like this: (dose: 10.0 mg/kg/injection, schedule: Q04DX003 (ip), vehicle: saline with Tween-80) 6 of 6; (dose: 40.0 mg/kg/injection, schedule: Q04DX003 (ip), vehicle: saline with Tween-80) 5 of 6.

Take `Cc1cccc(/C=N/Nc2ccccn2)n1`: the T/C (dose: 200.0 mg/kg/injection, schedule: Q01DX005 (ip), vehicle: saline with Tween-80) is 125 % of control [4 of 6 alive] and the T/C (dose: 400.0 mg/kg/injection, schedule: Q01DX005 (ip), vehicle: saline with Tween-80) was 144 % of control [4 of 6 alive].

In the case of `COc1ccc(C(Cn2ccnc2)Sc2ccc(Cl)c(Cl)c2)cc1` (stereo not drawn), the T/C under setting [4] is 128 % of control. In addition, the survivor count under setting [1] is recorded as 0 of 6.

Take `COc1ccc(CSc2ncnc3nc[nH]c23)cc1`: the survivor count reads like this: under setting [1], 5 of 6; under setting [2], 5 of 6.
